Results on 38 variants are retold here after the RNAGym collection of RNA variant scans (doi:10.1126/science.aae0568).

Sequences and labels used below:
B1: tRNA (parent)
chain: GUUCCGUUGGCGUAAUGGUAACGCGUCUCCCUCCUAAGGAGAAGACUGCGGGUUCGAGUCCCGUACGGAACG

Variants at the background level are over-represented here. Bounds are passed on as bounds.

Variants of B1 are the subject of the data set. In words: yeast fitness relative to wild type (ratio to wild type); higher = fitter; tRNA-Arg(CCU), competitive growth, 37 C, YPD. An outline of the steps: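 Variants of the tRNA-Arg(CCU) gene, chemically synthesised with a 3% per-site mutation rate at 69 sites, were placed at the native genomic locus in Saccharomyces cerevisiae. The pooled strains were competed in YPD at 37°C for 24 hours in six parallel replicates. Gene amplicons from the start population and from each end population were read by 100-nucleotide paired-end sequencing. Darwinian fitness relative to wild type came from changes in genotype frequencies; genotypes needed ≥ 100 starting reads, and estimates < 0.5 were set to 0.5.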
As to GUUCCGUUGGCGUAAUGCUAACGCGUCUUCCUCCUAAGGAGAAGACUGCGGGUUCGAGUCCCGUACGGAACG [G18C C29U], the yeast fitness is 0.546.
As for GUUCCGUUGGCGCAAUGGUAACGCGUGUCCCUCCGAAGGAGAAGACUGGGGGUUCGCGUCCCGUACGGAACG [U13C C27G U35G C49G A57C], the figure is not above 0.5; as for GUUCCGUUGGCGUAAUGGUAACGCGUCUCCCUCCUAAGGAGAAGACUGCAGGUUCGAGUCCCGUGCGGAACG [G50A A65G], 1.03.
As to GUUCUGUUGGCGUAAUGGUAACGCGUCUCCCUCCUAAGGAGCAGACUGCGGGUUCGAGUCCCGUACUGAACG [C5U A42C G67U], the yeast fitness is 0.69.
For GUUCCGUUCGCGUAAUGGUGACGCGUCUGCCUCGUAAGGAGAAGACUGCGGGUUCGAGUCCCGUACGGAACG [G9C A20G C29G C34G] the value was not above 0.5.
For GUUCAGUUGGCGUAAUGGUAACGCGUCUCCCUCCUAAUGAGAAGACUGCGGGUUAGAGUCCCGUACGGAACG [C5A G38U C55A] the value was not above 0.5; for GUUCUGUUGGCGUAAUGGUAACGCGUGUCCGUCCUAAGGACAAGACUGCAGGUUCGAGUCGCGUACGGAACG [C5U C27G C31G G41C G50A C61G], not above 0.5; for GGUCCGUUGGCGUAAUGGAAACGCGUCUCCCUCCUAAGGAGAAGACUGCGGGUUCGAGUCAUGUUCGGCACG [U2G U19A C61A C62U A65U A69C], not above 0.5.
On to GUUCCGUUGGCGUAAUGGUAAAACGUCUCCCUCCUAGGGAGAAGACUGCGGGUUCGAGUCCCGUACGGAACG [C22A G23A A37G], for which the yeast fitness is not above 0.5.
With GUUCCGUUGGCAUAAUGGUAACGAGUCUCCUUCCUAAGGAGAAGUCUGCGGGUUCGAGUCCCGUACGGUACG [G12A C24A C31U A45U A69U], the yeast fitness is not above 0.5.
For GUUCGGUUGGCGUAAUGGUAAUGCGGCUCCCACCAAAGGAGAAGACUGCGGGUUCGAGUCCCGUACGGCACG [C5G C22U U26G U32A U35A A69C] the value was not above 0.5; for GUGCCGUUGGCGUAAUGGUAACGCAUCUCCCUCCUAAGGAGAAGACUGCGGGUUCGAGUCCCGUACAGAACG [U3G G25A G67A], not above 0.5; for GUUCCAUAGGCGUAAUGGUAACACGUCUCGCUCCUAAGGAGAAGACUGCGGGUUCGAGUCCCGUUCGGAACG [G6A U8A G23A C30G A65U], not above 0.5.
GUUCCUUUGGCGUAAUGGUAACGCGUCUUCCUCCUAAGGAGAAGACUGCGGGUUCGAGUCCUGUACGGAUCG [G6U C29U C62U A70U]: the yeast fitness was not above 0.5.
On to GUGCGGUUGGAGUAAUGGUGACGCGUCUCCCUCCCAAGGAGAAGACUGCGGGUUCGAGUCCCGUACGGAACG [U3G C5G C11A A20G U35C], for which the yeast fitness was not above 0.5.
As for GUUCCGUUGGCGUAAUGGUAACGCGACUCCCUCCUAAGGAGAAGACUGCGGGUACGAGUCCCGUACGGAACG [U26A U54A], the figure is 0.589.
For GUUCCGUUGGCGUAAUGGUAACGCGUCUCCCUCCUAAGGAGUAGACUGCCGGAUCGAGUCCCGUACGGAACG [A42U G50C U53A] the value was not above 0.5; for GUUCCGUUGGCGUAAUGGUAACGCGUCUCCCUCCUAUGGAGAAGACUGCGGGUUCGUGUCCUGUACGGAACG [A37U A57U C62U], not above 0.5; for GUUCCGUUGGGGUAAUGGUAACGCGUCUCCCUCCUAAGGAGAAGUCUGGGGGUUCGAGUCCCGUACGGAACG [C11G A45U C49G], not above 0.5.
Turning to GUUCAGUUGGCGUAAUGGUAGGGCGUAUCCCUUCUAAGGUGAAGACUGCGGGUUGGAGUCCCGUACGGAACG [C5A A21G C22G C27A C33U A40U C55G], the yeast fitness is not above 0.5.
Take GUUCCGUUGGCCUAAUGGUAACGCGUCUCCCGCCUAAGGAGAAGACUGCAGGUUCGAGUCCCGUAAGGAACG [G12C U32G G50A C66A]: the yeast fitness was not above 0.5.
On to GUUCCGAUGACGUAAUGGUAACGCGUCUCCCUCCUAAGGAGAAGACUGAGGGUUCGAGUCCCGUACGGAACG [U7A G10A C49A], for which the yeast fitness was not above 0.5.
For GUUCCGUUGGCGUAAUGGUCACGCGUCUCCCUCCUAAGGAGAAGACUGCGGGCUCGAGUCCCGUACGGACCG [A20C U53C A70C] the value was not above 0.5.
Turning to GUUCCGUUGCCGUAAUGGUAACGCGUCUCCCUCCUAAGGAGAGGACUGCGGGUUCGAGUCACGUACGGAACG [G10C A43G C61A], the yeast fitness is not above 0.5.
Consider GUUCCGGUGGCGUAAUGGUAACGCGUCUCCCUCAUAAGGAGAAGACUGCGGGUUCGAGUCCCGUACGGAACG [U7G C34A], for which the yeast fitness is 0.757.
As for GUUCCGUUGCCGUAAUGGUAACCCGUCUCCCUCCUAAGGAGAAGUCUGCGGGUUCGAGGCCCGUACGGAACG [G10C G23C A45U U59G], the figure is 0.528.
For GUUCUGUUGGAGUAAUGGUAACGCGACUUAUUCCUAAGGAGAAGACUGCGGGUUCGAGUUUCGUACGGAACG [C5U C11A U26A C29U C30A C31U C60U C61U] the value was not above 0.5.
For GUUCCGUUGGCCUAAUGGUAACGCGUCUCCCUCCUAAGGAGAAGACUGCGGGUUUGAGUCGCGUACGGAACG [G12C C55U C61G] the value was not above 0.5.
GUUCGGUUGGCGUAAUGGUAACGCGUCUCCCUCCUGAGGAGAAGACUGCGGGUUUGAGUCCCGUACGGUACG [C5G A36G C55U A69U]: the yeast fitness was not above 0.5.
With GUUCCGUUGGCGUAAUGGUAACGCGUCUCCCUCCUUAGGAGACGACUGCGGGUUCGAGUCCCGUACGGACCG [A36U A43C A70C], the yeast fitness is not above 0.5.
For GUUCUGUUGGUGUAAUGGUAACGCGUCUCCCUCCUAGGGAGAAGACUGCGGGUUCAAGUCCCGUACGGAACG [C5U C11U A37G G56A], the yeast fitness was not above 0.5.
With GUUCCGUUGACGUAAUGGAAACGCGUCUCCCUCCUAAGGAGGAGACUGUGGGUUCGAGUCCCGAACGGAACG [G10A U19A A42G C49U U64A], the yeast fitness is not above 0.5.
For GUUCCGUUGGCGUAGUGGUACCGGGUCUCCCUCCUAAGGUGAAGACCGCGGGUUCGAGACCGGUACGGACCG [A15G A21C C24G A40U U47C U59A C62G A70C] the value was not above 0.5; for GGUCCGUUGGCGUAAUGGUAACGCGUCUCCCUCCGAAGGAGAAGGCUGGGGGUUCGAGCUCCGUACGGAACG [U2G U35G A45G C49G U59C C60U], not above 0.5.
As for GUUCCGUUGGCGUAACGGUUACGCAUCCCGCUCCUAAGGAGAAGACUGCGGGUUCGAGUCCCGUACGGAACG [U16C A20U G25A U28C C30G], the figure is not above 0.5; as for GUUCCGUUGGCGUAAUGGUAACGCGUCUCCAUCCUAAGGACAAGACUGCCGGUUCAAGUCCCGUACGGAACG [C31A G41C G50C G56A], not above 0.5.
Turning to GUUCCGUUGGCGUAAUGGAAACGCGUCUCCCUCCUGAGGAGCAGACUGCGGGUUCGAGUCGCGUCCGGAACG [U19A A36G A42C C61G A65C], the yeast fitness was not above 0.5.
As for GUUGCGUUGGAGUAAUGGUAACGCGUCUCCCCCCUAAGGAGAAGACUGCGGGUUCGAGUCCCGUACGGAACG [C4G C11A U32C], the figure is not above 0.5.
